This data set relates to T1, Siglec-2 expressed on intact Burkitt's lymphoma (BL) Daudi cells.
T1 construct: host or cells: BL Daudi cells
The experiment in a line: STD NMR binding to intact BL Daudi cells. Set-up: species or system human. Particulars: bound to BL Daudi cells, STDD. The text has this: Anti-human Siglec-1 (CD169)-FITC, (clone: 7-239); Siglec-3 (CD33)-FITC, (clone: AC104.3E3); Siglec-5 (CD170)-FITC (clone: 1A5); Siglec-7 (CD328)-VioBlue, (clone: REA214); Siglec-8-FITC, (clone: 7C9) and relevant isotype controls were purchased from Miltenyi Biotech (Bergisch Gladbach, Germany, UE). Mouse anti-human Siglec-2 (CD22) primary antibody (clone RFB4) and the relevant isotype control (clone 1E2.2) were purchased from Merck Group (Darmstadt, Germany, UE). The rat anti-mouse secondary antibody BV421 conjugated was purchased from BD Biosciences (San Jose, CA, USA). Rabbit anti-human Siglec-4 (Myelin Associated Glycoprotein, MAG) was purchased from LifeSpan BioSciences (Seattle, WA, USA). The Donkey anti-rabbit secondary antibody (Clone Poly4064)-BV421 conjugated was purchased from Biolegend (San Diego, CA, USA). Anti-human Siglec-5/Siglec-14-APC (Clone 194128), Siglec-6 (CD327)-APC (Clone 767329), Siglec-9-FITC (Clone 191240); Goat Siglec-10-PE Affinity Purified PAb, Goat Siglec-11-PE Affinity Purified PAb, Goat IgG-PE control, Siglec-16-APC (Clone 706022), and relevant isotypes were purchased from R&D Systems (Minneapolis, MN, USA). BL Daudi and HEK293T cells were incubated with the antibodies for one hour at 4 °C in PBS supplemented with 1% FCS (PBS-FBS) at a ratio of 1 μg of antibody per 1 × 10^6 cells. The cells were washed three times and then suspended in 1 mL of PBS-FBS buffer prior to flow cytometry analysis. Propidium iodide was used at a concentration of 10 ug/mL to differentiate viable from non-viable cells. Secondary antibodies were used according to the suppliers’ instructions. A CyAn ADP Flow Cytometer and Kaluza Flow Cytometry software were used for flow cytometric analysis (Beckman Coulter, Brea, CA, USA). For sorting the BL Daudi cells into Siglec-2^low and Siglec-2^high fractions, antibody staining was achieved as described above. […] Cells were sorted into low and high expressing Siglec-2 groups based on their fluorescence intensity, using MoFlo XDP (Beckman Coulter, CA, USA). […]

From publication PMC5093622, “Structural characterisation of high affinity Siglec-2 (CD22) ligands in complex with whole Burkitt’s lymphoma (BL) Daudi cells by NMR spectroscopy” (Scientific Reports, 2016) come the findings set out here.

On to `COC1(C(=O)O)CC(NC(=O)c2cccc([N+](=O)[O-])c2)C(NC(C)=O)C(C(O)C(O)CNC(=O)c2ccc(-c3ccccc3)cc2)O1` (stereo not drawn) [compound 3, 9-biphenylcarboxamido-4-meta-nitrophenyl-carboxamido-Neu5Acα2Me], for which the “relative STD NMR effect of H3 equatorial proton (H3eq)” value worked out at 122%, the “relative STD NMR effect of H^o proton (ring A)” value was 94% and the “relative STD NMR effect of H^p proton (ring A)” value amounted to 103%.
